Measurements reported in US11596642B2, “Therapeutic treatment of breast cancer based on c-MAF status” (INBIOMOTION S.L., priority 2016, dated 2023).
“Also recorded” adds a separate entry of the source. For at least one compound, name, drawing or mass did not settle the structure.

Columns and labels:
Format in all cases: in vivo, human
[1] = test system: breast cancer; test: AZURE trial, MAF FISH stratification: disease free survival (DFS); settings: all patients; differences in post and non-post menopausal women
Excerpt: (§1) The MAF FISH assay was produced by Kreatech for Inbiomotion based on KREATECH proprietary FISH technology. The probe set contains two probes: a MAF 16q23 probe plus a D16Z3 probe as control of chromosome 16 centromeric region. The assay was validated using a 16q23/D16Z3 probe (Inbiomotion) and Poseidon Tissue Digestion Kit from Kreatech. The scoring criteria were defined in a fact sheet and as follows: two FISH evaluable results per patient, and the highest value was selected. The scoring algorithm was as follows: 20 cells counted for target and centromere amplification, if the gene count is >2 and ≤3, then 50 cells were counted. […]
(§2) numerical and categorical (+/− cut-off>=2.5) variable; % of nucleic MAF amplified (MAF CN>2):numberical+categorical (cut-off TBD). […] The following clinical variables were analyzed: disease-free survival (DFS), invasive disease-free survival (IDFS), overall survival (OS), first recurrence in bone, bone recurrence at any time, time to first DFS event in bone, time to first DFS event not in bone, response to zoledronic acid treatment.
(§3) In analyzing the MAF FISH prognostic value, the patients from the control and treatment arms were pooled for the initial analysis. Optimized cut-offs for each variable to be analyzed were used when indicated. […]

[2] = test system: breast cancer; test: AZURE trial, retrospective MAF FISH stratification: time to bone metastasis (zoledronic acid arm vs control arm)
Excerpt: (§4) The MAF FISH assay was produced by Kreatech for Inbiomotion based on KREATECH proprietary FISH technology. The probe set contains two probes: a MAF 16q23 probe plus a D16Z3 probe as control of chromosome 16 centromeric region. The assay was validated using a 16q23/D16Z3 probe (Inbiomotion) and Poseidon Tissue Digestion Kit from Kreatech. The scoring criteria were defined in a fact sheet and as follows: two FISH evaluable results per patient, and the highest value was selected. The scoring algorithm was as follows: 20 cells counted for target and centromere amplification, if the gene count is >2 and ≤3, then 50 cells were counted.
(§5) An overview of the AZURE clinical trial (Coleman et al N Eng J Med 2011; 365: 1396-1405 and AZURE Current Controlled Trials number, ISRCTN79831382 and ClinicalTrials.gov identifier NCT00072020) study design, whose patients were used to validate MAF, is provided in FIG. 2. MAF was validated in a retrospective analysis of the AZURE trial using patient tumor sample prospectively collected under regulatory compliant conditions. Out of the 3360 patients recruited, 1,769 donated tumor tissue (52.4%). There were 13 TMAs (tissue micro array) (150 patient samples each) (1,769 patients). There were 4 replicas of each TMA using different tissue cores (6,326 (4×patient)). One TMA had only 1 replica and two TMAs had three replicas. Based on the H&E analysis (hematoxilyin and eosin) (FIG. 3) (6,326): 3978 cores were evaluable (63%) and 2348 were nonevaluable.
(§6) For the FISH assay, there were 2,067 FISH evaluable cores (56%). […] 567 patients were nonevaluable by FISH in any of the 4 replicas (32%).
(§7) numerical and categorical (+/− cut-off>=2.5) variable; % of nucleic MAF amplified (MAF CN>2):numberical+categorical (cut-off TBD). For the IHC analysis: IHC H-Score: numerical+categorical (cut-off=200), IHC OD: numerical+categorical (cut-off tBD). The following clinical variables were analyzed: disease-free survival (DFS), invasive disease-free survival (IDFS), overall survival (OS), first recurrence in bone, bone recurrence at any time, time to first DFS event in bone, time to first DFS event not in bone, response to zoledronic acid treatment.
(§8) In analyzing the MAF FISH prognostic value, the patients from the control and treatment arms were pooled for the initial analysis. Optimized cut-offs for each variable to be analyzed were used when indicated. Death as a competing event was used in time to bone metastasis, anytime. The following clinical variables were analyzed: time to bone metastasis (anytime), time to bone metastasis (as first event), IDFS (including ipsilateral invasive breast tumor recurrence, regional invasive breast cancer recurrence, metastatic disease-breast cancer, death attributable to any cause, including breast cancer, contralateral invasive breast cancer, second primary non-breast invasive cancer), and overall survival.
(§9) The control and zoledronic acid treatment arms from the AZURE study described in Example 1 were evaluated to determine the effect of zoledronic acid treatment on MAF-stratified patients.

[3] = test system: breast cancer; test: AZURE trial, MAF FISH stratification: invasive disease free survival (IDFS) / time to recurrence
Excerpt: as §4, §5, §6, §7, §8, §9

[4] = test system: breast cancer; test: AZURE trial, MAF FISH stratification: overall survival (OS)
Excerpt: as §1, §2, §3

O=P(O)(O)C(O)(Cn1ccnc1)P(=O)(O)O [zoledronic acid]
DFS outcome between MAF FISH positive and negative patients [1]: differential DFS outcome | Outcome (summary wording) ([2]; MAF FISH positive non-postmenopausal patients): worsens the outcome | Outcome (summary wording) ([2]; MAF FISH positive postmenopausal patients): improves the outcome | Outcome for bone metastasis at any time risk, treated compared to untreated patients ([2]; MAF negative patients): better outcome | Outcome for bone metastasis at any time, treated compared to untreated patients ([2]; MAF positive patients): worse outcome | Difference in incidence of bone as first site of recurrence between MAF positive and non-positive patients ([2]; cutoff 2.3, zoledronic acid arm compared with control arm): reduced the differences | Risk of bone metastasis at any time, MAF positive compared to MAF non-positive patients ([2]; patients treated with zoledronic acid): no significant difference | IDFS, effect of treatment ([3]; MAF positive patients, treated compared to untreated): worsened; also recorded: worse outcome | IDFS (excluding bone), effect of treatment ([3]; non-post-menopausal women, MAF FISH non-positive patients): no difference | IDFS (excluding bone), effect of treatment ([3]; non-post-menopausal women, MAF FISH positive patients (>=2.2)): significantly worsens; also recorded: worse outcome | IDFS (excluding bone), effect of treatment ([3]; post-menopausal, MAF FISH positive patients (>=2.2)): significantly improved; also recorded: better outcome | IDFS (excluding bone), effect of treatment ([3]; post-menopausal, MAF non-positive patients): no difference | Overall survival (OS), effect of treatment ([4]; MAF FISH positive patients): significantly impacted; also recorded: significantly shorter overall survival | Overall survival outcome, effect of treatment ([4]; post menopausal, FISH positive patients, relative to MAF negative): larger effect
